This passage reports growth results from the supplement of paper PMC10470496.

Common to all, as to experiment: growth relative to vehicle control (OD600 ratio) (fraction); higher = less inhibition
Conditions in all cases: 24 h

Assay [1] has as its system C. auris AR-384.
In assay [2] the test system is C. auris AR-386.
Assay [3] deals with C. auris AR-387.

Molecules are shown by their SMILES. Counter-ions that a name gives are not always drawn. This is one part of the list. Repeats are few or missing, and single values can be far off.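 Three clinical Candida auris isolates (clades III, IV and I) from the CDC resistance isolate bank were grown in RPMI-1640 at 35°C. Growth was background-corrected OD600 relative to same-plate vehicle-only wells. Hits required over 50% inhibition in at least two strains and a plate-corrected B-score above 0.1.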

Regarding `COc1ccc2cc([C@H](C)C(=O)O)ccc2c1` [Naproxen Sodium], the growth in assay [1] (1 µM) was 0.85; in assay [1] (10 µM) it was 1.12; in assay [2] (1 µM) it was 1.17; in assay [2] (10 µM) it was 0.77; in assay [3] (1 µM), 0.76; in assay [3] (10 µM), 1.07.
`C=CCN1CCCC1CNC(=O)c1cc2nn[nH]c2cc1OC` (stereo not drawn) [Alizapride HCl]: the growth in assay [1] (1 µM) was determined as 0.75; in assay [1] (10 µM), 0.86; in assay [2] (1 µM), 0.85; in assay [2] (10 µM), 0.91; in assay [3] (1 µM), 0.91; in assay [3] (10 µM) it was 0.8.
Regarding `Nc1nc(Cl)nc2c1ncn2[C@H]1C[C@H](O)[C@@H](CO)O1` [Cladribine], the growth in assay [1] (1 µM) is 0.74; in assay [1] (10 µM), 0.75; in assay [2] (1 µM), 0.71; in assay [2] (10 µM), 0.95; in assay [3] (1 µM), 0.82; in assay [3] (10 µM), 0.94.
Consider `COC(=O)C1=C(C)NC(C)=C(C(=O)OC2CCCN(Cc3ccccc3)C2)C1c1cccc([N+](=O)[O-])c1` (stereo not drawn) [Benidipine HCl], for which the growth in assay [1] (1 µM) stood at 0.9; in assay [1] (10 µM), 0.95; in assay [2] (1 µM), 0.87; in assay [2] (10 µM), 0.9; in assay [3] (1 µM), 0.75; in assay [3] (10 µM), 0.81.
As for `CC1(C)S[C@@H]2[C@H](NC(=O)Cc3ccccc3)C(=O)N2[C@H]1C(=O)O` [Penicillin G Sodium], the growth in assay [1] (1 µM) came to 0.87; in assay [1] (10 µM), 0.89; in assay [2] (1 µM), 0.83; in assay [2] (10 µM) it was 0.73; in assay [3] (1 µM), 0.72; in assay [3] (10 µM), 0.99.
In the case of `NCCc1c[nH]cn1` [Histamine 2HCl], the growth came out at 0.63 in assay [1] (1 µM); 0.87 in assay [1] (10 µM); 0.87 in assay [2] (1 µM); 0.81 in assay [2] (10 µM); 0.9 in assay [3] (1 µM); 1.11 in assay [3] (10 µM).
As for `NC[C@H]1O[C@H](O[C@H]2[C@H](O)[C@@H](O[C@H]3O[C@H](CO)[C@@H](O)[C@H](N)[C@H]3O)[C@H](N)C[C@@H]2N)[C@H](O)[C@@H](O)[C@@H]1O` [Kanamycin sulfate], the growth in assay [1] (1 µM) was found to be 0.88; in assay [1] (10 µM), 0.61; in assay [2] (1 µM) it was 0.82; in assay [2] (10 µM), 0.6; in assay [3] (1 µM) it was 0.8; in assay [3] (10 µM), 1.12.
As for `COc1cc2nc(N(C)CCCNC(=O)C3CCCO3)nc(N)c2cc1OC` (stereo not drawn) [Alfuzosin HCl], the growth in assay [1] (1 µM) came to 0.95; in assay [1] (10 µM), 0.75; in assay [2] (1 µM), 0.65; in assay [2] (10 µM), 1.09; in assay [3] (1 µM), 0.8; in assay [3] (10 µM) it was 0.78.
As for `O=C(O)c1cn(-c2ccc(F)cc2)c2cc(N3CCNCC3)c(F)cc2c1=O` [Sarafloxacin HCl], the growth in assay [1] (1 µM) turned out to be 0.96; in assay [1] (10 µM), 0.67; in assay [2] (1 µM) it was 0.9; in assay [2] (10 µM) it was 1; in assay [3] (1 µM), 0.93; in assay [3] (10 µM), 0.75.
Regarding `Clc1ccc(CSC(Cn2ccnc2)c2ccc(Cl)cc2Cl)cc1` (stereo not drawn) [Sulconazole Nitrate], the growth in assay [1] (1 µM) was 0.53; in assay [1] (10 µM), 0.37; in assay [2] (1 µM), 1.1; in assay [2] (10 µM), 0.57; in assay [3] (1 µM) it was 0.12; in assay [3] (10 µM), 0.01.
`CCC(=O)NS(=O)(=O)c1ccc(-c2c(-c3ccccc3)noc2C)cc1` [Parecoxib]: the growth in assay [1] (1 µM) is 0.8; in assay [1] (10 µM), 0.71; in assay [2] (1 µM) it was 0.69; in assay [2] (10 µM), 0.87; in assay [3] (1 µM), 0.68; in assay [3] (10 µM), 0.89.
As to `COc1cc2ncnc(Nc3ccc(F)c(Cl)c3)c2cc1NC(=O)/C=C/CN1CCCCC1`, the growth in assay [1] (1 µM) is 0.72; in assay [1] (10 µM), 0.92; in assay [2] (1 µM) it was 0.77; in assay [2] (10 µM) it was 0.99; in assay [3] (1 µM), 1.06; in assay [3] (10 µM) it was 0.88.
With `COc1cc(Nc2ncc(F)c(Nc3ccc4c(n3)N(COP(=O)(O)O)C(=O)C(C)(C)O4)n2)cc(OC)c1OC` [Fostamatinib (R788)], the growth turned out to be 1.05 in assay [1] (1 µM); 0.91 in assay [1] (10 µM); 1.05 in assay [2] (1 µM); 0.96 in assay [2] (10 µM); 0.99 in assay [3] (1 µM); 1.15 in assay [3] (10 µM).
With `COc1cc2nc(N3CCN(C(=O)C4CCCO4)CC3)nc(N)c2cc1OC` (stereo not drawn) [Terazosin HCl Dihydrate], the growth was 1.54 in assay [1] (1 µM); 1.33 in assay [1] (10 µM); 0.89 in assay [2] (1 µM); 1.24 in assay [2] (10 µM); 1.29 in assay [3] (1 µM); 1.15 in assay [3] (10 µM).
In the case of `CN1CCC(=C2c3ccccc3CCc3sccc32)CC1` [Pizotifen Malate], the growth in assay [1] (1 µM) came out at 0.77; in assay [1] (10 µM), 1.11; in assay [2] (1 µM), 1.03; in assay [2] (10 µM), 0.84; in assay [3] (1 µM), 1.13; in assay [3] (10 µM) it was 1.2.
For `O=C(NCCO[N+](=O)[O-])c1cccnc1` [Nicorandil], the growth is 0.75 in assay [1] (1 µM); 0.69 in assay [1] (10 µM); 0.56 in assay [2] (1 µM); 0.93 in assay [2] (10 µM); 0.81 in assay [3] (1 µM); 0.59 in assay [3] (10 µM).
Consider `O=C(O)c1cccnc1Nc1cccc(C(F)(F)F)c1` [Niflumic acid], for which the growth in assay [1] (1 µM) is 0.91; in assay [1] (10 µM) it was 0.67; in assay [2] (1 µM), 0.75; in assay [2] (10 µM) it was 0.73; in assay [3] (1 µM) it was 0.67; in assay [3] (10 µM), 0.75.
Take `CCCNC(=O)NS(=O)(=O)c1ccc(Cl)cc1` [Chlorpropamide]: the growth was found to be 0.9 in assay [1] (1 µM); 0.8 in assay [1] (10 µM); 0.92 in assay [2] (1 µM); 1.18 in assay [2] (10 µM); 0.75 in assay [3] (1 µM); 1.1 in assay [3] (10 µM).
Take `N=C(N)c1ccc(OCCCCCOc2ccc(C(=N)N)cc2)cc1` [Pentamidine isethionate]: the growth in assay [1] (1 µM) turned out to be 0.82; in assay [1] (10 µM), 0.2; in assay [2] (1 µM), 0.49; in assay [2] (10 µM), 0.14; in assay [3] (1 µM), 0.87; in assay [3] (10 µM), 0.77.
Turning to `CO/N=C(\C(=O)N[C@@H]1C(=O)N2C(C(=O)OCOC(=O)C(C)(C)C)=C(/C=C\c3scnc3C)CS[C@H]12)c1csc(N)n1` [Cefditoren Pivoxil], the growth in assay [1] (1 µM) amounted to 1.27; in assay [1] (10 µM), 0.93; in assay [2] (1 µM), 0.72; in assay [2] (10 µM), 0.72; in assay [3] (1 µM), 0.77; in assay [3] (10 µM) it was 1.03.
Turning to `Nc1cccc2c1C(=O)N(C1CCC(=O)NC1=O)C2=O` (stereo not drawn) [Pomalidomide], the growth in assay [1] (1 µM) is 1.09; in assay [1] (10 µM) it was 1.08; in assay [2] (1 µM) it was 1.14; in assay [2] (10 µM) it was 0.64; in assay [3] (1 µM), 0.92; in assay [3] (10 µM), 0.7.
Take `NC[C@H]1CC[C@H](C(=O)O)CC1` [Tranexamic Acid]: the growth in assay [1] (1 µM) amounted to 1.4; in assay [1] (10 µM), 1.26; in assay [2] (1 µM), 1.08; in assay [2] (10 µM), 1.33; in assay [3] (1 µM), 1.21; in assay [3] (10 µM), 1.11.
For `O=C(O)c1ccc(-n2nc(-c3ccccc3O)nc2-c2ccccc2O)cc1` [Deferasirox], the growth in assay [1] (1 µM) was 0.94; in assay [1] (10 µM), 1.17; in assay [2] (1 µM), 1.19; in assay [2] (10 µM), 0.71; in assay [3] (1 µM), 1.11; in assay [3] (10 µM), 1.08.
